{
  "sequences": {"note": "Amino acid sequences for entries named in this document (tags omitted).", "UniProt P13569, whole entry G551D": "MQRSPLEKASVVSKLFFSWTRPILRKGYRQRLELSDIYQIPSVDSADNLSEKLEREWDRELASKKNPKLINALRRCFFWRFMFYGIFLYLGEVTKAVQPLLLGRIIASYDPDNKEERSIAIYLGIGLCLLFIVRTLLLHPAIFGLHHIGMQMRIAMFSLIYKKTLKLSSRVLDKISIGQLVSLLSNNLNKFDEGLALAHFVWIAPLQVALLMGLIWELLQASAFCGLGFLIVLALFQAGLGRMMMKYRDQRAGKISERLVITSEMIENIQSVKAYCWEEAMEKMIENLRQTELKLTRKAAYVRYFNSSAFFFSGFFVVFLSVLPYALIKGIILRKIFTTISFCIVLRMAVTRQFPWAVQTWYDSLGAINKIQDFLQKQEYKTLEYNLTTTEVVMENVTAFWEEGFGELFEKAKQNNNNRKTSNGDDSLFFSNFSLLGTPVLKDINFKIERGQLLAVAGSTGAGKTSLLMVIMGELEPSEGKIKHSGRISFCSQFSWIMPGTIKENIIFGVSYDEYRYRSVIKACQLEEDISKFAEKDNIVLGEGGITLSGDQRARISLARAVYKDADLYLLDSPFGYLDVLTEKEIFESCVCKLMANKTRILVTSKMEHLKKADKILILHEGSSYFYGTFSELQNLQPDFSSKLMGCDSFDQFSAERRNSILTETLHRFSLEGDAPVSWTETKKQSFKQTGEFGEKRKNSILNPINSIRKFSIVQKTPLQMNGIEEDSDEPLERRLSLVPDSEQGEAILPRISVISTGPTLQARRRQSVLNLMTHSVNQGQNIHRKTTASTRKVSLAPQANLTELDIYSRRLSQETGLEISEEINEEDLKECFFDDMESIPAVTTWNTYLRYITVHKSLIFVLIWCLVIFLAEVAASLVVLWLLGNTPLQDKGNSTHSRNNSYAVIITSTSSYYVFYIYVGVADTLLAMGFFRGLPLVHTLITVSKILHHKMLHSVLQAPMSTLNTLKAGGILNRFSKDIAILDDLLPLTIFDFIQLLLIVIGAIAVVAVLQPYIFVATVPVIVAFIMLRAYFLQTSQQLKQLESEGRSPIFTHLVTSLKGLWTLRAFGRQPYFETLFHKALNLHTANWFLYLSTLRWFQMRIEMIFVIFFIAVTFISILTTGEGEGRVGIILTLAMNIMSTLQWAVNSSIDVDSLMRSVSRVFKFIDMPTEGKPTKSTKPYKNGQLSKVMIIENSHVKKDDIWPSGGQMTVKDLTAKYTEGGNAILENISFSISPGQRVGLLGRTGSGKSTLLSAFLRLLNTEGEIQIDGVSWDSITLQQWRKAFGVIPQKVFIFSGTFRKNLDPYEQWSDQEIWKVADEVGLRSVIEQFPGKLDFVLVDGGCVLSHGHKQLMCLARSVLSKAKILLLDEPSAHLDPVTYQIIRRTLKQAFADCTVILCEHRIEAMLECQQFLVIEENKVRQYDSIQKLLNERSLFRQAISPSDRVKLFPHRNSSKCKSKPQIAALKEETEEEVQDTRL", "UniProt P13569, whole entry": "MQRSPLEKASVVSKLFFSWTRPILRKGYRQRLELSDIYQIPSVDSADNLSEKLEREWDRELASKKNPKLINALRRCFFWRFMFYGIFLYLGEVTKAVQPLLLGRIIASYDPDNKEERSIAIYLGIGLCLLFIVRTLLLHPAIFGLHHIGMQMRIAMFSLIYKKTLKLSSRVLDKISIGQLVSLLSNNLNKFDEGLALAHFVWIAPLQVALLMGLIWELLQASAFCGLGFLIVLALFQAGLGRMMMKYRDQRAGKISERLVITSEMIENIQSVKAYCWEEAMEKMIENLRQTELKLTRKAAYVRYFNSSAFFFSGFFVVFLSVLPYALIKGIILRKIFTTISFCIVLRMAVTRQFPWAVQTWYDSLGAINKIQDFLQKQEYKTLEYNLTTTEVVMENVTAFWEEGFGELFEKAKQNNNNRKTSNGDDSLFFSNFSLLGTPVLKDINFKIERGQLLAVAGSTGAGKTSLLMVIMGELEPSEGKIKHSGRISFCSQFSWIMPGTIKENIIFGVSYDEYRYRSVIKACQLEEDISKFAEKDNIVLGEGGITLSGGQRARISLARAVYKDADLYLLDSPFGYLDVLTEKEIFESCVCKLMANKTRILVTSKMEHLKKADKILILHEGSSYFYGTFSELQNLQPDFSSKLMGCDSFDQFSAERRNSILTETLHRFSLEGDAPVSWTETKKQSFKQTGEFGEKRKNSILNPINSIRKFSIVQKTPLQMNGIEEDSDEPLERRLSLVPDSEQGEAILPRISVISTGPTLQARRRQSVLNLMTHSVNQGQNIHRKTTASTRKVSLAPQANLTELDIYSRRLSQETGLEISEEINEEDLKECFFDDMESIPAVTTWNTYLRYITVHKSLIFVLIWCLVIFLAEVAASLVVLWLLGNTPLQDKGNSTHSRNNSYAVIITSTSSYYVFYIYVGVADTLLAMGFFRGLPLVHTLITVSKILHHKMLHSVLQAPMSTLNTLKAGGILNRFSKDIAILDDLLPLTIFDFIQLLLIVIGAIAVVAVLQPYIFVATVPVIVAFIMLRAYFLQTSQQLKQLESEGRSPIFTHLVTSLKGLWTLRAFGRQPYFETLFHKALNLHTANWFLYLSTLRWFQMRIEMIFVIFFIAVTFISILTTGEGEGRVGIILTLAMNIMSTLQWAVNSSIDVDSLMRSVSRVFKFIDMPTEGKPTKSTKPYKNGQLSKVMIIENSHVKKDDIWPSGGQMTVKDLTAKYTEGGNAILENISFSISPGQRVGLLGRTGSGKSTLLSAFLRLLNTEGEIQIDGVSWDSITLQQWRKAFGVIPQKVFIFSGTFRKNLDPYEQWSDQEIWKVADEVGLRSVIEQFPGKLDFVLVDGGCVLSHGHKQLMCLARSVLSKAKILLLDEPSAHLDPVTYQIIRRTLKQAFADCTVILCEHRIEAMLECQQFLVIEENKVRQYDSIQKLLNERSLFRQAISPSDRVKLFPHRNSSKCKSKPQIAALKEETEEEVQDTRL"},
  "source": "patent US7772198B2",
  "about": "“CFTR channel modulators” (Centre National de la Recherche Scientifique, priority 2003, dated 2010)",
  "key": {"[1]": {"molecular_target": "T1, G551D-CFTR (CHO-G551D cells) (Homo sapiens, UniProt P13569, G551D)", "T1 construct": "expressed in transfected cells; host or cells: CHO (Chinese Hamster Ovary) cells, stably transfected", "test": "125I iodide efflux, CHO cells expressing G551D mutated CFTR (CHO-G551D)", "type": "cell-based", "conditions": "1 μM Fsk alone"}, "[2]": {"molecular_target": "T2, wild-type CFTR receptor (CHO-WT cells) (Homo sapiens, UniProt P13569)", "T2 construct": "expressed in transfected cells; host or cells: CHO (Chinese Hamster Ovary) cells, stably transfected", "test": "125I iodide efflux, CHO cells overexpressing wild-type CFTR (CHO-WT)", "type": "cell-based", "conditions": "1 μM Fsk alone"}},
  "note": "At least one structure is not confirmed: it was looked up by name or label, or the drawing left a doubt.",
  "data": [
    {"smiles": "C=C[C@@]1(C)CC(=O)[C@]2(O)[C@@]3(C)[C@@H](O)CCC(C)(C)[C@@H]3[C@H](O)[C@H](OC(C)=O)[C@@]2(C)O1", "note": "[Fsk, forskolin, reference compound]", "values": [
      {"measurement": "effect on activation of mutated CFTR (CHO-G551D)", "setting": "[1]", "value": "no effect"},
      {"measurement": "effect on activation of wild-type CFTR (CHO-WT)", "setting": "[2]", "value": "activation"}
    ]}
  ]
}
